The target of assay [1] is T1, cVenus-MPK12 (Arabidopsis thaliana) (UniProt Q8GYQ5).
T1 sequence: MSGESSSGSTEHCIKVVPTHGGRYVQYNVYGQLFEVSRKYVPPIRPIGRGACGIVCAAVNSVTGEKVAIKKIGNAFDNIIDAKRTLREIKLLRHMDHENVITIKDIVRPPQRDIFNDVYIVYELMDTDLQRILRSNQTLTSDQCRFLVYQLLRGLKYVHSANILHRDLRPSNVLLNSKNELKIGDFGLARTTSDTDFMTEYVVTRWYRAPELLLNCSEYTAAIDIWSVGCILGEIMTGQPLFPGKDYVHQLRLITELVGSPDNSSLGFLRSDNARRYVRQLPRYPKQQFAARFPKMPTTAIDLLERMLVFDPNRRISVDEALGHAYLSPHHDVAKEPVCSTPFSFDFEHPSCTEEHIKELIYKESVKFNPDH
Briefly: split reporter; split-Venus BiFC in N. benthamiana leaves, 35S promoter, inoculant-blinded; plants at nominally 100 ppm CO2 or shifted to 800 ppm CO2 for 4 hours; fluorescence intensity by ImageJ.

For assay [2], the target named is T2, GST-MPK11 (Arabidopsis) (UniProt Q9LMM5).
T2 sequence: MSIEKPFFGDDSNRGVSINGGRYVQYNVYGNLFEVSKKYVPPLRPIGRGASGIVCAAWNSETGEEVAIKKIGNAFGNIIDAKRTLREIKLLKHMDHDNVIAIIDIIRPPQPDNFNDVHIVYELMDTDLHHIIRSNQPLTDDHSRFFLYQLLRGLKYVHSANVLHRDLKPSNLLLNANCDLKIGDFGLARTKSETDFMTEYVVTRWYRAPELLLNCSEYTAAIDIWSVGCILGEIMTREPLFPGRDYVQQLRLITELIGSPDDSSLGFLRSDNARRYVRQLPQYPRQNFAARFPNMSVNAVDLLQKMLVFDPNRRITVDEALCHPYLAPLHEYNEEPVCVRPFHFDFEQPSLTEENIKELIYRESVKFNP
Briefly: pull-down; GST-MPK on glutathione Sepharose 4B beads, His-HT1 as prey; 5 ug of each protein in 200 ul of 50 mM tris-HCl pH 7.5, 150 mM NaCl, 0.1% Triton X-100, 1 mM DTT; 20 mM NaHCO3 or 20 mM NaCl (control) in all buffers including washes; room temperature; immunoblot with anti-GST and anti-His; both purified.

For assay [3], the target named is T3, GST-MPK3 (Arabidopsis) (UniProt Q39023).
T3 sequence: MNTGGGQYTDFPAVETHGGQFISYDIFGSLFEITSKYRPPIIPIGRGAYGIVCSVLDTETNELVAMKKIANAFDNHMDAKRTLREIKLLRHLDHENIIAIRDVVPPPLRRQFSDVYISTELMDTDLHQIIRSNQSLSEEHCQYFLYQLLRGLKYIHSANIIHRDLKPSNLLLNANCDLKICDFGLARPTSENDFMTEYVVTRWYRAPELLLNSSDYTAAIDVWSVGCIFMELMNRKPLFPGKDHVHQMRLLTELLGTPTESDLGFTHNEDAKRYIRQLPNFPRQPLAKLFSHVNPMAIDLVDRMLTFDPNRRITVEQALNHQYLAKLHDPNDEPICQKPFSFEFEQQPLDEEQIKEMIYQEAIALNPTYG
The description is as above.

Results are given in words; binding and its absence hold for the method and conditions named. For part of these data: Binding seen in cells or lysates may run through a third protein. Some entries that bind do so weakly or less than the wild type. For part of these data: Where a sequence is shown, tags or fusion partners need not be part of it.

B1: nVenus-HT1 (enzyme, UniProt Q2MHE4 1-390)
chain: MSGLCFNPFRLRWSLRSKLPLEPSLPNLPCNPSSSKTNRYAEAETMEKKRFDSMESWSMILESENVETWEASKGEREEWTADLSQLFIGNKFASGAHSRIYRGIYKQRAVAVKMVRIPTHKEETRAKLEQQFKSEVALLSRLFHPNIVQFIAACKKPPVYCIITEYMSQGNLRMYLNKKEPYSLSIETVLRLALDISRGMEYLHSQGVIHRDLKSNNLLLNDEMRVKVADFGTSCLETQCREAKGNMGTYRWMAPEMIKEKPYTRKVDVYSFGIVLWELTTALLPFQGMTPVQAAFAVAEKNERPPLPASCQPALAHLIKRCWSENPSKRPDFSNIVAVLEKYDECVKEGLPLTSHASLTKTKKAILDHLKGCVTSISSPFSSSSVPVNA
For the molecule B1, the binding result in assay [1] is “binds”.

B2: His-HT1 (high leaf temperature 1, Raf-like protein kinase), wild type (enzyme, UniProt Q2MHE4 1-390)
chain: B1 chain
For B2, the binding result in assay [2] and in assay [3] was “no binding (tested: 5 ug of each protein in 200 ul)” throughout.

(Values after article PMC9728965, “Stomatal CO2/bicarbonate sensor consists of two interacting protein kinases, Raf-like HT1 and non-kinase-activity requiring MPK12/MPK4” (Science Advances, 2022).)
